From paper PMC6629125, “Lysyl oxidase–like 2 (LOXL2)–mediated cross-linking of tropoelastin” (The FASEB Journal, 2019) come the findings set out here.

Results are given in words; binding and its absence hold for the method and conditions named.

This assay has as its target T1, full-length lysyl oxidase-like 2 (FL-LOXL2), recombinant human (human), Q9Y4K0.
T1 chain: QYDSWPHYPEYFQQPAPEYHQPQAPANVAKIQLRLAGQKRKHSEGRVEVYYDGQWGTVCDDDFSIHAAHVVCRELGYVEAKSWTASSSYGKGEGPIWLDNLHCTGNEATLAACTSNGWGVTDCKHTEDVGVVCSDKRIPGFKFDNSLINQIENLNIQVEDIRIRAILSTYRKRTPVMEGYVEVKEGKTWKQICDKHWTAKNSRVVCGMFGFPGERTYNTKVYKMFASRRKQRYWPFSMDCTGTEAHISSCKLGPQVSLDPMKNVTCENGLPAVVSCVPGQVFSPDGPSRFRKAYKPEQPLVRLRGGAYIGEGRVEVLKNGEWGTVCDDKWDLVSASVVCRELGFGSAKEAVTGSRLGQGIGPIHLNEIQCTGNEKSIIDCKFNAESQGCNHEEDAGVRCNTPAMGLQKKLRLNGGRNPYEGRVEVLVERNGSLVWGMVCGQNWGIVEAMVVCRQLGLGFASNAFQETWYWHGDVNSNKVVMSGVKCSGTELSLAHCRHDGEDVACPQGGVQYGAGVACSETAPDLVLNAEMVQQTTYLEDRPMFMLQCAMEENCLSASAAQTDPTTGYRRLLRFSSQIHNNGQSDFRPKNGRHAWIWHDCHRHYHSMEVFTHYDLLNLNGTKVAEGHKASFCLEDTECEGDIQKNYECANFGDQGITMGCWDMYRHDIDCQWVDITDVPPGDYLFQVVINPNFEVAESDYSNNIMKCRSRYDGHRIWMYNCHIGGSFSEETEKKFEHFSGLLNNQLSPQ
Briefly: negative-stain EM single-particle analysis; FL-LOXL2 at 10 µg/ml on carbon-coated grids, 4% uranyl acetate; about 10,000 particles; 3D reconstruction at 22 Å; both purified. To be noted: remark: other sources report otherwise.

B1: full-length lysyl oxidase-like 2 (FL-LOXL2), recombinant human, Q9Y4K0 26-774 (enzyme)
chain: T1 chain
B1: the binding result is on record as “no binding (tested: 10 µg/ml)”.
